PubChem BioAssay AID1671190 (National Center for Advancing Translational Sciences (NCATS), 2021)
Hit rate of the full screen: of about 580,000 compounds, about 6,100 (1.1%) were called active. The inconclusive results got no clear call from the source; some entries with a clear call stand among them for comparison. Calls follow the shape of the dose curve; as a rule, active = well fitted inhibition curve with a large enough effect; inconclusive = small, poorly fitted or top-dose-only effect, or another doubt; inactive = no such curve, though single readings can be large or run the other way. Potencies of inconclusive entries are doubtful fits and often do not repeat.

Chains of the proteins cited; added tags and fusions are not shown.
UniProt P18054, whole entry, looked up: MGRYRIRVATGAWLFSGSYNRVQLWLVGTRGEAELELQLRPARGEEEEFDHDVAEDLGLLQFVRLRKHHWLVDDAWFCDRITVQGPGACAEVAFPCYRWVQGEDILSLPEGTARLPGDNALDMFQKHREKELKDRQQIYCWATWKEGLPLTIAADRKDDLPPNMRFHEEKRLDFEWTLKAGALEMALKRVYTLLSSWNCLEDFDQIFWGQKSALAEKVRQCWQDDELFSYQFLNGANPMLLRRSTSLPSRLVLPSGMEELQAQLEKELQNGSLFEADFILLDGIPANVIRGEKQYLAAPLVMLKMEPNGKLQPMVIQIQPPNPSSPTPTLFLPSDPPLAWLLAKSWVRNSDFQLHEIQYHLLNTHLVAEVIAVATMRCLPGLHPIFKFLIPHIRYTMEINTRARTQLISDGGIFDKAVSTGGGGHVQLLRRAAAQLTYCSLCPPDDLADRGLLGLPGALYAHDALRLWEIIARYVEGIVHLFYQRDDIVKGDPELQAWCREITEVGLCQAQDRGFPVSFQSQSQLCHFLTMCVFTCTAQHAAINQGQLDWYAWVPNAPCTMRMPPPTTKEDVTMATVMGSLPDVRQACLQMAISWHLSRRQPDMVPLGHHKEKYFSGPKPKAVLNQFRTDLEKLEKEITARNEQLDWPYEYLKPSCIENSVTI

These compounds were tested against Polyunsaturated fatty acid lipoxygenase ALOX12 (Homo sapiens) (UniProt P18054) (assay: Primary qHTS assay for inhibitors of human arachidonate 12S-lipoxygenase (ALOX12): Round 2). Conditions: purified 12hLO, xylenol orange hydroperoxide absorbance; activity change, negative = inhibition: at 108 µM (top of the series) unless noted.
Procedure, shortened: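 Purified human 12hLO (150 nM final) in 25 mM Hepes, 0.01% Triton X-100, pH 7.0 was preincubated 15 min at room temperature with compound. Then 40 uM arachidonic acid was added, 30 min. Hydroperoxide was read by Fe-XO absorbance ratio 573/405 nm.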
% is scaled to controls: 0 for no effect and ±100 for the full control effect; potency is read from the fitted curve at half-maximal effect.

Structure (SMILES) | Potency | activity change, negative = inhibition
COc1cccc(CN(C)CC(=O)NC(=O)NCc2ccccc2)c1 | inactive | –
COc1cccc(CN2CCN(C(=O)c3cccc(OC)c3)CC2)c1 | inconclusive: 2.51 µM [inhibitor, full curve, poor fit] | –
O=C(Oc1ccc(O)cc1)C12CC3CC(CC(C3)C1)C2 | inconclusive: 141 µM [inhibitor, single point] | –
CCN1CCN(Cc2ccc(NC(=O)Nc3ccc(SC)cc3)cc2)CC1 | inconclusive: 1.78 µM [inhibitor, full curve, poor fit] | –
Nc1ccc(/C=C/c2ccc(N)cc2S(=O)(=O)O)c(S(=O)(=O)O)c1 | – | inactive: -6.01% [at 0.22 µM]
COc1cccc(C(=O)Nc2ccc3c(c2)CN(Cc2cccc(OC)c2OC)C(=O)C(C)O3)c1 (stereo not drawn) | inconclusive: 20 µM [inhibitor, full curve] | –
Cc1cccc(CN2C[C@]34C=C[C@@H](C[C@@H]3S2(=O)=O)O4)c1 | inactive | –
Cc1cccc(Nc2ccccc2C(=O)O)c1C | inactive | –
COc1ccc(-c2cc(C(=O)O)c3cc(C(C)C)ccc3n2)cc1 | inconclusive: 39.8 µM [inhibitor, partial curve, poor fit] | –
CC(C)c1ccc(-c2noc(CSc3nnc(C4COc5ccccc5O4)o3)n2)cc1 (stereo not drawn) | inactive | –
Cc1ccsc1C1C(C(=O)O)c2ccccc2C(=O)N1C (stereo not drawn) | inconclusive: 63.1 µM [inhibitor, partial curve, poor fit] | –
COc1ccc(NC(=O)C2Cc3c(-c4ccc(NC(C)=O)cc4)ccnc3O2)cc1 (stereo not drawn) | inactive | –
COc1ccc(C(=O)N2CCN(c3nc(C4CC4)nc4sc(C)c(C)c34)CC2)cc1 | inconclusive: 44.7 µM [inhibitor, partial curve, poor fit] | –
CCC(CC)C(=O)c1c[nH]c(C(=O)NCc2ccccn2)c1 | inconclusive: 112 µM [inhibitor, single point] | –
COc1ccc(-c2cc(-c3nnc(COC(=O)C4CC4)o3)c3ccccc3n2)cc1OC | inactive | –
Cc1noc2c(NCC3CCOCC3)cc(-c3ccc(F)cc3)nc12 | active: 56.2 µM | –
CCC1CN(C(=O)Nc2cc(C)ccc2OC)c2cc(Cl)ccc2O1 (stereo not drawn) | inactive | –
COc1cccc(N2CCc3c(C)nc4ccc(Cl)cc4c32)c1 | inconclusive: 3.55 µM [inhibitor, full curve, poor fit] | –
CNC(=O)[C@@H]1C[C@@H](n2cc(C(C)(C)NC(=O)c3cccc(Cl)c3)nn2)CN1 | inconclusive: 2.51 µM [inhibitor, full curve, poor fit] | –
O=C(NCCc1ccc(Cl)cc1)C1=CC=CN2CCS(=O)(=O)N=C12 | inconclusive: 89.1 µM [inhibitor, single point] | –
CCCn1c(SCc2csc(-c3ccccc3)n2)nnc1C1CC1 | inconclusive: 39.8 µM [inhibitor, single point] | –
COc1ccc(NC(=O)CSc2ccc(-c3ccco3)nn2)c(OC)c1 | inconclusive: 39.8 µM [inhibitor, partial curve] | –
COCCCN(C(C)=O)c1nc(-c2ccc(OC)cc2)cs1 | inactive | –

Quoted at random: 3 entries already listed.
Structure (SMILES) | Potency | activity change, negative = inhibition
Nc1ccc(/C=C/c2ccc(N)cc2S(=O)(=O)O)c(S(=O)(=O)O)c1 | – | inactive: -6.01% [at 0.22 µM]
COc1cccc(CN(C)CC(=O)NC(=O)NCc2ccccc2)c1 | inactive | –
Cc1noc2c(NCC3CCOCC3)cc(-c3ccc(F)cc3)nc12 | active: 56.2 µM | –

Continued:

Structure (SMILES) | Potency | activity change, negative = inhibition
O=C1C(Cl)=C(Nc2ccc3cn[nH]c3c2)C(=O)c2ccccc21 | inconclusive: 15.8 µM [inhibitor, full curve, poor fit] | –
O=C(CSc1nnc(-c2ccccc2Br)o1)Nc1nncs1 | inconclusive: 25.1 µM [inhibitor, partial curve, poor fit] | –
COc1ccccc1CNC(=O)CSc1nc2[nH]ncc2c(=O)n1-c1ccccc1 | inactive | –
CC1=C[C@@H](CNC(=O)Nc2cccc(C#N)c2)[C@H](C(C)C)C[C@H]1CC(=O)NCc1ccccn1 | inconclusive: 17.8 µM [inhibitor, partial curve, poor fit] | –
O=C1c2ccccc2C(=O)N1CCSc1ncc(C(F)(F)F)cc1Cl | inconclusive: 31.6 µM [inhibitor, single point] | –
Cc1cccc(OCC(=O)Nc2c(C(=O)N3CCN(c4ccccc4F)CC3)oc3ccccc23)c1 | inactive | –
COc1cccc(-c2nnc(SCC(=O)N3CCCc4ccccc43)o2)c1 | inactive | –
COc1cccc(CN2CCN(Cc3cccc4nonc34)CC2CCO)c1 (stereo not drawn) | inactive | –
CCOc1ccc(S(=O)(=O)Nc2ccc3oc(C)c(C(=O)OC(C)C)c3c2)cc1 | inconclusive: 0.794 µM [inhibitor, partial curve, poor fit] | –
COc1ccccc1C(=O)NCC1Cn2cccc2C(=O)N1CC(C)C (stereo not drawn) | inactive | –
CCOc1cc(N)c(Cl)cc1C(=O)NCC1CN(Cc2ccc(F)cc2)CCO1 (stereo not drawn) | inconclusive: 6.31 µM [inhibitor, full curve, poor fit] | –
Cc1cc(=O)n2c(C(=O)Nc3cccc(Cl)c3)c(C(=O)Nc3ccccc3)sc2n1 | inconclusive: 44.7 µM [inhibitor, partial curve] | –
O=C1CCc2cc(S(=O)(=O)Nc3ccc(C(F)(F)F)cc3)cc3c2N1CC3 | inconclusive: 100 µM [inhibitor, single point] | –
NC(CC(=O)NC(c1ccccc1)(c1ccccc1)c1ccccc1)C(=O)O (stereo not drawn) | inactive | –
O=C(Nc1ccc(O)cc1)c1cc2ccccc2c(=O)s1 | inactive | –
CCCCS(=O)CC(COC)OC(=O)c1ccccc1 (stereo not drawn) | inactive | –
O=C(c1cncn1-c1ccc(F)cc1)N1CCN(CCN2CCCC2)CC1 | inactive | –
Cn1c(=O)n(Cc2ccccc2)c(=O)c2sc3c(c21)COC(C)(C)C3 | inactive | –
CC(=O)N1CCN(C)CC1 | inconclusive: 28.2 µM [inhibitor, single point] | –
O=C(Cc1ccc(OC(F)(F)F)cc1)N1CCC(c2n[nH]c(=O)n2-c2ccccc2)CC1 | inconclusive: 50.1 µM [inhibitor, partial curve] | –
CCOC(=O)C(NC(=O)/C=C/c1ccc(C)c(Cl)c1)C(=O)OCC | inconclusive: 22.4 µM [inhibitor, partial curve, poor fit] | –
C[N+]1(CC(=O)OCCCc2ccccc2)CCCC1 | inconclusive: 50.1 µM [inhibitor, partial curve, poor fit] | –
COc1cc(/C=N/n2c(-c3ccccc3)n[nH]c2=S)ccc1O | inconclusive: 44.7 µM [inhibitor, partial curve, poor fit] | –

Structure (SMILES) | Potency | activity change, negative = inhibition
COc1ccc(-n2nc(C(=O)Nc3cc(OC)c(OC)c(OC)c3)c(=O)n(C)c2=O)cc1 | inconclusive: 126 µM [inhibitor, partial curve, poor fit] | –
COC(=O)C1=C(N)Oc2cc(C)n(CCc3ccccc3)c(=O)c2C1c1cccnc1 (stereo not drawn) | inactive | –
COc1ccc(C(=O)c2sc(Nc3ccccc3)c(C(=O)Nc3ccc(OC)c(OC)c3)c2N)cc1 | inconclusive: 25.1 µM [inhibitor, partial curve, poor fit] | –
CCc1c(C)sc(NC(=O)c2ccc(Cl)s2)c1C#N | inconclusive: 50.1 µM [inhibitor, partial curve, poor fit] | –
CC(=O)N(C)c1ccc(NC(=S)Nc2ccc(C(C)C)cc2)cc1 | inconclusive: 39.8 µM [inhibitor, partial curve, poor fit] | –
COc1cc(OC)c(OC)cc1/C=C/c1nc2ccccc2[nH]c1=O | inconclusive: 28.2 µM [inhibitor, partial curve, poor fit] | –
COc1ccc(C2CC(c3ccccc3)=NN2c2ccc(S(N)(=O)=O)cc2)cc1 (stereo not drawn) | inconclusive: 12.6 µM [inhibitor, partial curve, poor fit] | –
CC1(C)C2CCC1(C)C(OC(=O)C[N+]1(C)CCOCC1)C2 (stereo not drawn) | inconclusive: 141 µM [inhibitor, partial curve, poor fit] | –
CC(C)NC(=O)C(=O)N1CCN(c2nc(-c3ccco3)c3c(c2C#N)CCCC3)CC1 | inconclusive: 44.7 µM [inhibitor, partial curve, poor fit] | –
COc1cc2c(cc1OC)C(C[C@H]1CN(C(=O)CCc3ccccc3)CC[C@H]1CC(=O)O)=NCC2 | inconclusive: 35.5 µM [inhibitor, full curve, poor fit] | –
CN1CC(=O)N(C2CCNCC2)Cc2c1ncnc2N1CCCCC1 | inconclusive: 10 µM [inhibitor, full curve] | –
Cc1nc2cc(NC(=O)C(C)Oc3ccc(F)cc3)ccc2o1 (stereo not drawn) | inactive | –
CCN(CC)/C(=N\S(=O)(=O)c1ccc(C)cc1C)c1ccccc1 | inactive | –
Cc1ccc(NC(=O)C2=CCN(Cc3ccccc3F)CC2)cc1 | inconclusive: 35.5 µM [inhibitor, full curve, poor fit] | –
O=C(Nc1ccccc1)c1cc(C2CCCCN2C(=O)c2ccccc2)on1 (stereo not drawn) | inconclusive: 141 µM [inhibitor, partial curve, poor fit] | –
CN(C)c1ccc(-c2nc(NCCN3CCOCC3)c3ccccc3n2)cc1 | inconclusive: 44.7 µM [inhibitor, partial curve, poor fit] | –
O=C(CCc1ccccc1)N1CCC2(CC1)NC(=O)N(c1ccccc1)N2 | active: 2.24 µM | –
O=C(O)c1ccc(Nc2nc3ccccc3n3cnnc23)cc1 | inactive | –
Cc1cc(SCC(=O)c2ccc(O)c(O)c2)nc2ccccc12 | active: 6.31 µM | –
O=C1NC[C@H](CCCCN2CCN(CCc3ccccc3)C(=O)C2=O)N(CC2CCCCC2)C1=O | inconclusive: 3.55 µM [inhibitor, full curve, poor fit] | –
O=C(Nc1ccccc1C(=O)NCCCN1CCOCC1)c1ccc(F)cc1F | inconclusive: 126 µM [inhibitor, single point] | –
Cc1ccc(C(O)c2ncc(-c3ccc4ccccc4c3)[nH]2)cc1F (stereo not drawn) | inconclusive: 79.4 µM [inhibitor, single point] | –

At a glance, part of the list above.
Structure (SMILES) | Potency | activity change, negative = inhibition
COc1cc2c(cc1OC)C(C[C@H]1CN(C(=O)CCc3ccccc3)CC[C@H]1CC(=O)O)=NCC2 | inconclusive: 35.5 µM [inhibitor, full curve, poor fit] | –
CN1CC(=O)N(C2CCNCC2)Cc2c1ncnc2N1CCCCC1 | inconclusive: 10 µM [inhibitor, full curve] | –
